Test results: US20060194740A1, “NOD1 as an anti-tumor agent” (priority 2005, published 2006)
No constants are given. Whether binding was seen depends on the method and setting. In cells and extracts the contact can be indirect. Some binding calls cover weakened binding; strength is not graded here. Sequences can lack the tags named with a protein.

Target: T1, FLAG-caspase 9, P55211
T1 chain: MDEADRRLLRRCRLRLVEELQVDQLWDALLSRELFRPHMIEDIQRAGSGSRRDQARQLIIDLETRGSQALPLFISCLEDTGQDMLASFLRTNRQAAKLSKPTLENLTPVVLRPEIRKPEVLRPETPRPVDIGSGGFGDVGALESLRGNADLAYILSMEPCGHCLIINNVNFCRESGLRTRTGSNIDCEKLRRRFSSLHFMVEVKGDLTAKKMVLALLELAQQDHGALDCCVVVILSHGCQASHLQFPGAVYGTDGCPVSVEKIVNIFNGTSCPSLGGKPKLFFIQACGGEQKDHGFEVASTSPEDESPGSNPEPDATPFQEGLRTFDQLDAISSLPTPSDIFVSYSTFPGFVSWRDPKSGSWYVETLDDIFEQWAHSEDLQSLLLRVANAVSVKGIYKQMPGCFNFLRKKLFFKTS
Experiment: co-immunoprecipitation from co-transfected 293 cells: IP with anti-FLAG antibody, immunoblot with polyclonal anti-Myc antibody
Settings: remark: other sources report otherwise

binding: binds
B1: Myc-NOD1, Q9Y239 1-953 (protein, not shown: small tags and cut ends)
chain: MEEQGHSEMEIIPSESHPHIQLLKSNRELLVTHIRNTQCLVDNLLKNDYFSAEDAEIVCACPTQPDKVRKILDLVQSKGEEVSEFFLYLLQQLADAYVDLRPWLLEIGFSPSLLTQSKVVVNTDPVSRYTQQLRHHLGRDSKFVLCYAQKEELLLEEIYMDTIMELVGFSNESLGSLNSLACLLDHTTGILNEQGETIFILGDAGVGKSMLLQRLQSLWATGRLDAGVKFFFHFRCRMFSCFKESDRLCLQDLLFKHYCYPERDPEEVFAFLLRFPHVALFTFDGLDELHSDLDLSRVPDSSCPWEPAHPLVLLANLLSGKLLKGASKLLTARTGIEVPRQFLRKKVLLRGFSPSHLRAYARRMFPERALQDRLLSQLEANPNLCSLCSVPLFCWIIFRCFQHFRAAFEGSPQLPDCTMTLTDVFLLVTEVHLNRMQPSSLVQRNTRSPVETLHAGRDTLCSLGQVAHRGMEKSLFVFTQEEVQASGLQERDMQLGFLRALPELGPGGDQQSYEFFHLTLQAFFTAFFLVLDDRVGTQELLRFFQEWMPPAGAATTSCYPPFLPFQCLQGSGPAREDLFKNKDHFQFTNLFLCGLLSKAKQKLLRHLVPAAALRRKRKALWAHLFSSLRGYLKSLPRVQVESFNQVQAMPTFIWMLRCIYETQSQKVGQLAARGICANYLKLTYCNACSADCSALSFVLHHFPKRLALDLDNNNLNDYGVRELQPCFSRLTVLRLSVNQITDGGVKVLSEELTKYKIVTYLGLYNNQITDVGARYVTKILDECKGLTHLKLGKNKITSEGGKYLALAVKNSKSISEVGMWGNQVGDEGAKAFAEALRNHPSLTTLSLASNGISTEGGKSLARALQQNTSLEILWLTQNELNDEVAESLAEMLKVNQTLKHLWLIQNQITAKGTAQLADALQSNTGITEICLNGNLIKPEEAKVYEDEKRIICF
